# No constants are given. Whether binding was seen depends on the method and setting. Binding seen in cells or lysates may run through a third protein. Binding can be weak; no strength is given.
# Molecular target: T1, GUN1-cEYFP (Arabidopsis thaliana) (UniProt Q9SIC9)
# T1 sequence: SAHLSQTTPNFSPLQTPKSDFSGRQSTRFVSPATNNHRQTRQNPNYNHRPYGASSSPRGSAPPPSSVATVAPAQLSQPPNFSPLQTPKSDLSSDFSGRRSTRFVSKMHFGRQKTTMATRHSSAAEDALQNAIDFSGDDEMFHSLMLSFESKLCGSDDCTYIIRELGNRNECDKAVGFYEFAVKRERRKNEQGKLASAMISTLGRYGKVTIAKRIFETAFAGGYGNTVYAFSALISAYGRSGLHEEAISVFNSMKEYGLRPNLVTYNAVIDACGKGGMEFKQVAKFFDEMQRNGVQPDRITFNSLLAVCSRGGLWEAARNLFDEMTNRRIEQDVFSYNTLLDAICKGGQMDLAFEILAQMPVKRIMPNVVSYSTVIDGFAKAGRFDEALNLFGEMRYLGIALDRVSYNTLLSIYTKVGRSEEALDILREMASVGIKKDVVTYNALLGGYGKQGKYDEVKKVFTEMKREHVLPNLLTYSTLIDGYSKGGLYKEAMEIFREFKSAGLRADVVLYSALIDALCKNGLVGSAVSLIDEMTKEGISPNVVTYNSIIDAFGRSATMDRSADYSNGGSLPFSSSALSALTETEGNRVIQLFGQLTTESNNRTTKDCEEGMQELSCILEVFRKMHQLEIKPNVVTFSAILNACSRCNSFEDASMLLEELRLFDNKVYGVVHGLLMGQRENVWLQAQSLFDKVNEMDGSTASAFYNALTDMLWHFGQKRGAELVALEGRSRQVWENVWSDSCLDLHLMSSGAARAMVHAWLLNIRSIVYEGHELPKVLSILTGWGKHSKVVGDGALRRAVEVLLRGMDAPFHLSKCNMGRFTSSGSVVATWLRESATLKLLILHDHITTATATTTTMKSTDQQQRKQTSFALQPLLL
# Assay: split reporter; BiFC in transfected Arabidopsis mesophyll protoplasts; GUN1 with cEYFP, candidate with nEYFP; confocal microscopy after 16 h at 22 °C in the dark
row,binding,Substance
1,binds,DJC31 fused with nEYFP (Arabidopsis thaliana)
2,binds,HCF145 fused with nEYFP (Arabidopsis thaliana)
